# Experimental data: PubChem BioAssay AID602196 (INSERM, 2012)
# Test: 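Knock-downs that protect lung cancer cells from cisplatin or sensitise them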
# Cells: human A549 lung cancer cells
# Reagents: siRNA pair against human genes
# Time to read-out: 48 h transfection before cisplatin; time from cisplatin to read-out not stated
# Treatment: cisplatin at a dose killing half of control-siRNA cells; exact dose and duration not given
# Measurement: 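Cisplatin cell death as a shift from the 50% death seen with control siRNA; siRNAs toxic or growth-blocking alone scored 0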
# Direction: two-siRNA summed score (-2 to +2): higher = both siRNAs protect from cisplatin killing; -2 means both sensitise; mean protection from cisplatin (shift in death) and protection from cisplatin (shift in death), siRNA C and protection from cisplatin (shift in death), siRNA D: higher = protection from cisplatin killing
# Active means: 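siRNAs harmful alone (LDH or WST-1) get 0; others get +1 for less and -1 for more cisplatin killing; genes are active when the two siRNAs give the same sign, summing to ±2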
# Meaning of the calls: active = both siRNAs shift cisplatin killing the same way; inactive = no consistent shift, or siRNA harmful alone
# Here is an unselected part of about 23,000 reagents. 455 of them (2%) were called active. 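Active includes both protection and sensitisation; some change values fall well beyond the stated -50 to +50 range.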 Entries without a mark were called inactive. No sequences are given here. The record does not give: the amount of reagent.
The first 2 entries as a preview:
gene,PubChem SID,two-siRNA summed score (-2 to +2),mean protection from cisplatin (shift in death) (%),"protection from cisplatin (shift in death), siRNA C (%)","protection from cisplatin (shift in death), siRNA D (%)"
CYP2E1,SID131503982,0,-6.9,-5.8,-8
LOC440065,SID131522872,1,28.2,16.7,39.7

Results, from the start:
gene,PubChem SID,two-siRNA summed score (-2 to +2),mean protection from cisplatin (shift in death) (%),"protection from cisplatin (shift in death), siRNA C (%)","protection from cisplatin (shift in death), siRNA D (%)"
CYP2E1,SID131503982,0,-6.9,-5.8,-8
LOC440065,SID131522872,1,28.2,16.7,39.7
NEMP1,SID131519478,1,5.8,-4.8,16.4
ATP6V0D2,SID131501905,-1,-6.7,-7,-6.4
IBSP,SID131511186,0,4.1,-3.3,11.4
MMUT,SID131506462,0,-1.5,-3.7,0.7
LOC221344,SID131520666,1,10.7,7.5,13.9
LOC388610,SID131506147,0,-2,17.7,-21.6
FAM194C,SID131520130,1,8.8,15,2.6
CCDC42,SID131511826,0,4.8,7.5,2
TMEM121,SID131512222,0,5.2,4.6,5.9
TPSG1,SID131519461,1,5.7,18.6,-7.1
GDF1,SID131522205,1,16.9,16.2,17.5
GLCCI1,SID131520418,1,9.8,6.9,12.8
ALDOC,SID131509684,0,2.4,-4.7,9.5
CD47,SID131502592,-1,-0.4,-26.7,25.9
FOXP1,SID131516457,0,10.9,23.7,-1.8
SEH1L,SID131519737,1,7.2,2.1,12.3
STIP1,SID131502650,-1,1.1,-8.2,10.3
ZNF709,SID131512934,0,6,21.5,-9.5
MRPS18A,SID131513985,0,7.3,1,13.5
EBLN2,SID131513466,0,6.6,8.9,4.3
LOC441442,SID131518282,0,17.9,4.7,31
H3C2,SID131515016,0,8.6,17.6,-0.4
WNT6,SID131522966,2 (active),14.9,19.5,10.2
SPINT4,SID131516692,0,11.4,14.9,8
EXO5,SID131510884,0,3.7,3.4,4.1
THOC7,SID131507602,0,0.1,2.6,-2.4
SCN10A,SID131502996,0,-16.3,-28.4,-4.2
NUP35,SID131522979,2 (active),15.5,19.9,11.2
TATDN2,SID131509877,0,2.6,8.4,-3.2
TUT7,SID131518422,0,19.5,0.8,38.1
LOC441992,SID131522789,1,24.3,33.7,14.9
NEDD4,SID131509949,0,2.7,8.2,-2.8
PTPN22,SID131516513,0,11,8.6,13.4
LOC441467,SID131519143,1,2.9,18.8,-13
EHD3,SID131510583,0,3.4,0.9,5.9
TMEM33,SID131512584,0,5.6,5.4,5.8
SPAG7,SID131512898,0,6,3.2,8.7
E2F6P4,SID131514925,0,8.4,13.6,3.3
LOC388952,SID131514346,0,7.7,7.8,7.6
FLJ46230,SID131506885,0,-0.8,-2.4,0.7
PKIB,SID131511262,0,4.2,1.2,7.1
LOC441497,SID131509641,0,2.4,1.4,3.3
LOC390364,SID131511337,0,4.2,8.2,0.3
GOT1L1,SID131508675,0,1.3,5.5,-2.9
ZNF830,SID131511080,0,4,5.6,2.4
CDK18,SID131502917,0,-18.6,-14.6,-22.7
NKAPL,SID131506334,0,-1.7,-5.2,1.8
LOC152015,SID131514915,0,8.4,16.1,0.7
ANKRD26,SID131506531,0,-1.4,11.9,-14.6
TLX3,SID131515283,0,8.9,9.6,8.2
C1orf159,SID131504813,0,-4.4,-17.2,8.3
LOC389112,SID131518764,0,26.6,17.2,36
TMIGD1,SID131514976,0,8.5,11.9,5.1
DPCD,SID131521766,1,14.8,14.3,15.3
OR1J4,SID131508632,0,1.3,0.5,2.1
